# Reference: patent US20040132971A1
# No constants are given. Whether binding was seen depends on the method and setting. Binding can be weak; no strength is given.
# Molecular target: T1, soluble RANKL (human RANKL amino acid residues 158-316) (human) (UniProt O14788)
# T1 sequence (looked up): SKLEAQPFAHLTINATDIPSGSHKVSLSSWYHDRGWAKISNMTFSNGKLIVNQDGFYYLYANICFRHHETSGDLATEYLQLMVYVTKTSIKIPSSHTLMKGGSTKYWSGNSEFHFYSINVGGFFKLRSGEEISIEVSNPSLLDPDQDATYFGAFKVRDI
# Assay: Kd for RANKL by the kinetic analysis of Example 7 (flow cytometry on displayed variants or SPR; not specified)
row,binding,Substance
1,binds,"K108M,R111W-hOPG(22-194) (receptor)"
2,binds,T154L-hOPG(22-194) (receptor)
3,binds,"T71A,K108N-hOPG(22-194) (receptor)"
4,binds,R111W-hOPG(22-194) (receptor)
